In PubChem BioAssay AID493014 (National Center for Advancing Translational Sciences (NCATS), 2011) one finds AC50 data, which are given here for 61 molecules.

The test in a line: qHTS Assay to Find Inhibitors of Chronic Active B-Cell Receptor Signaling. As to conditions: ABC-DLBCL IkBa-CBG/CBR reporter, luminescence ratio (green luciferase fused to IkBa over red control in TMD8 lymphoma cells), 4 h. The method, boiled down:
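TMD8 ABC-DLBCL cells carrying doxycycline-inducible green luciferase fused to IkappaBalpha plus unfused red luciferase were exposed to compounds (up to 46 uM) for 4 hrs at 37C. Activity came from the overlap-corrected green/red luminescence ratio.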
(In qHTS, concentration-response curves come from the screen itself.)

Where [1] appears, read: measured here: CBR red luminescence, cell number.
Where [2] appears, read: measured here: IkBa-CBG green luminescence.

Structures are written as SMILES. The list shows a part of the results. Shown are side measurements of this screen, not its main read-out; they come without a call. Compounds called inactive in the main read-out are mostly missing here. Words in brackets tell the shape of the fitted curve; partial curves, single points and poor fits give uncertain potencies.

On to `Cc1cccc(CSc2ncnc3c2cnn3Cc2ccccc2)c1`, for which, under setting [1], the half-maximal activity concentration (AC50) (commonly the midpoint of the concentration-response curve, whichever way the signal moves) was 14.6 µM [rising, single point]. The same measure, in the same setting: the result for `O=C(NCC1CCCN1S(=O)(=O)c1ccccc1)C(=O)NC1CC1` (stereo unspecified) reads 25.9 µM [rising, single point]; that for `CCn1c(=NC(=O)c2cccc(N3C(=O)CCC3=O)c2)sc2c(OC)ccc(OC)c21`, 11.2 µM [falling, single point].

Turning to `O=C(Nc1cc(Br)ccc1O)C1CC(c2c(F)cccc2Cl)=NO1` (stereo unspecified), the AC50 under setting [2] was 0.501 µM [rising, full curve, poor fit]. Turning to `Cc1cc(C)c(S(=O)(=O)N2CCN(C(=O)c3c(C)noc3C)CC2)c(C)c1`, under setting [1], the AC50 was 6.51 µM [rising, single point].

Take `C/C(=N/NC(=O)c1ccc(NC(=O)c2ccc(F)cc2)cc1)c1ccccc1`: the half-maximal activity concentration (AC50) under setting [1] is 17.8 µM [falling, single point]. With `COCCCNC(=O)CN1C(=O)/C(=C\c2ccc(C)cc2)Sc2ccccc21`, the AC50 under setting [1] was 18.4 µM [rising, partial curve, poor fit].

With `COc1ccc(N=C2NC(=O)/C(=C/c3ccco3)S2)cc1`, under setting [1], the AC50 was 35.5 µM [falling, partial curve, poor fit]. Still for that read-out and setting: under `CCCC(=O)Nc1ccc(N2CCCCC2)cc1` stands 32.6 µM [falling, single point].

With `COc1ccc(-c2cc3cc(F)ccc3cn2)cc1`, under setting [1], the AC50 was 0.082 µM [rising, full curve].

`c1ccc(-c2ccc(-n3ccnc3)cc2)cc1`: under setting [1], the half-maximal activity concentration (AC50) is 0.251 µM [rising, full curve, poor fit]. On the same count and under the same terms, under `CCN(CC)S(=O)(=O)c1ccc2oc(C(=O)NCC3COc4ccccc4O3)c(C)c2c1` (stereo unspecified) stands 6.51 µM [falling, single point]; under `CCOC(=O)c1cnc2ccc(C)cc2c1Sc1ccc(F)cc1`, 22.4 µM [falling, single point]; under `COc1ccc(C2=C(C=Nc3c(C)n(C)n(-c4ccccc4)c3=O)C(c3ccccc3C)c3ccccc3O2)cc1OC` (stereo unspecified), 0.731 µM [rising, full curve, poor fit]. The same measure, in the same setting: under `O=C(c1cc(-c2ccccc2)on1)N1CCCc2ccccc21` stands 3.98 µM [rising, partial curve]; under `Cc1ccc(C(=O)NC(C)CCc2ccccc2)cc1S(=O)(=O)N1CCOCC1` (stereo unspecified), 0.58 µM [rising, full curve, poor fit]; under `O=C(COC(=O)CCN=C1NS(=O)(=O)c2ccccc21)NNC(=O)c1ccccc1`, 29.1 µM [falling, single point]. Still for that read-out and setting: under `Cc1ccc(Nc2nc(-c3sc(NC(=O)c4ccco4)nc3C)cs2)cc1` stands 18.4 µM [falling, single point]. `O=C(c1ccco1)N1CCN(Cc2nc3ccc([N+](=O)[O-])cc3c(=O)n2-c2ccccc2F)CC1`: the AC50 under setting [1] is 14.6 µM [rising, partial curve, poor fit]. Still for that read-out and setting: under `CC(C)(C)C1CCC(=NNc2nc3ccccc3[nH]2)CC1` (stereo unspecified) stands 22.4 µM [falling, single point]; under `CCc1ccccc1N=C1S/C(=C/c2ccccc2OCC(=O)N2CCOCC2)C(=O)N1C`, 7.31 µM [falling, partial curve, poor fit]. For the molecule `Cc1cc2nnc(SCC(=O)N3CCCCC3)n2c(N)n1`, the AC50 under setting [2] is 8.91 µM [rising, partial curve, poor fit].

On to `CCOC(=O)c1sc(NC(=O)Nc2ccc(Cl)cc2)nc1C`, for which the half-maximal activity concentration (AC50) under setting [1] is 3.55 µM [rising, single point]. The same measure, in the same setting: the result for `O=C(NNC(=O)c1ccccc1OCc1ccccc1)c1ccccc1F` reads 12.6 µM [falling, single point]; that for `C=CCNC(=O)c1cccc2c1C(=O)c1ccc(N3CCOCC3)cc1S2(=O)=O`, 20.6 µM [falling, single point]. Still for that read-out and setting: under `Cc1ccccc1S(=O)(=O)Cc1ccc(C(=O)NCCN2CCCCC2C)o1` (stereo unspecified) stands 9.2 µM [falling, partial curve]; under `CCCCCCC(=O)N(O)C1CC(=O)N(c2ccc(F)cc2)C1=O` (stereo unspecified), 0.282 µM [falling, full curve, poor fit]; under `CC(/C=C1\SC(=S)N(CC(=O)N2CCN(c3ccccc3)CC2)C1=O)=C\c1ccccc1`, 0.92 µM [rising, full curve, poor fit]. Still for that read-out and setting: the result for `O=C(CCCCn1c(=O)c2ccccc2n(Cc2ccc(Cl)cc2)c1=O)NCc1ccco1` reads 4.11 µM [falling, single point]; that for `Cn1c2c(c(=O)n(C)c1=O)C(C(F)(F)F)(C(F)(F)F)N=C(c1ccc(Cl)cc1)N2`, 3.16 µM [falling, single point]; that for `O=C(/C(=N/N=C/c1ccc(O)c(O)c1)c1ccccc1)c1ccccc1`, 10.3 µM [falling, partial curve]. With `Cc1cccc(NC(=O)c2cc(NC(=O)c3ccccc3)ccc2N2CCCCC2)c1`, the AC50 under setting [1] is 0.082 µM [falling, full curve, poor fit]. With `CCOC(=O)C1=CN(Cc2cccc(-c3cccnc3)c2)S(=O)(=O)N(C)C1C` (stereo unspecified), the AC50 was 25.9 µM [falling, single point] under setting [1] and 29.1 µM [rising, single point] under setting [2]. Consider `O=C(O)c1ccc(NC(=S)Nc2ccccc2)cc1`, for which, under setting [1], the AC50 was 25.9 µM [falling, single point]. Still for that read-out and setting: the result for `Cc1ccc(OCCNC(=O)c2ccc(NC(=O)CC3SC(N4CCCC4)=NC3=O)cc2)cc1` (stereo unspecified) reads 29.1 µM [falling, single point]; that for `CCOc1ccccc1N1CCN(C(=O)c2ccc3[nH]c(C)c(C)c3c2)CC1`, 0.0891 µM [falling, full curve, poor fit]; that for `Cc1ccccc1Nc1nc(N)nc(CSCc2c(C)noc2C)n1`, 2.59 µM [rising, partial curve, poor fit]. Same read-out and setting: under `Nc1nnc(SCCOc2ccc(Br)cc2)s1` stands 0.58 µM [rising, partial curve, poor fit]; under `CCOC(=O)C1=C(CSc2nccn2C)NC(=O)NC1c1ccc(OC)cc1` (stereo unspecified), 1.64 µM [rising, partial curve, poor fit]. `O=C(/C=C/c1ccc(O)cc1)c1ccc(O)cc1O`: the half-maximal activity concentration (AC50) under setting [1] was 1.16 µM [falling, full curve] and the AC50 under setting [2] is 7.31 µM [falling, partial curve]. Take `Cc1ccc(/C=N/NC(=O)c2cccs2)o1`: the AC50 under setting [1] is 9.2 µM [falling, partial curve]. On the same count and under the same terms, the result for `Cc1nnc(SCc2ccccc2Cl)n(N)c1=O` reads 0.794 µM [falling, full curve, poor fit].

In the case of `CCOCCCNC(=O)C1(O)c2cc(Br)ccc2NC(=O)N1c1cccc(OC)c1` (stereo unspecified), the AC50 under setting [1] is 20 µM [rising, partial curve, poor fit]. The same measure, in the same setting: under `Cc1ccnc2nc(C(=O)Nc3nc4ccccc4s3)nn12` stands 6.31 µM [falling, full curve, poor fit]; under `Cc1nn(-c2ccccc2)nc1C(=O)Nc1ccc2c(c1)OCCO2`, 15.8 µM [falling, single point]. Still for that read-out and setting: under `O=c1ccc(NS(=O)(=O)c2ccc(Cl)cc2)cn1Cc1ccc(Cl)c(Cl)c1` stands 22.4 µM [falling, single point]; under `COC(=O)CC(c1ccccc1F)N1Cc2ccccc2C1=O` (stereo unspecified), 0.0891 µM [rising, full curve, poor fit]; under `Cc1cccc(CCNC(=O)C2CCN(S(=O)(=O)c3cccc4cccnc34)CC2)c1`, 35.5 µM [rising, single point].

With `CN(C(=O)c1ccc(Br)o1)C1CCCCC1`, the concentration at half-maximal activity (AC50) under setting [1] is 7.94 µM [rising, partial curve, poor fit]. Same read-out and setting: the result for `CCC(=O)N1CC2(CC(c3cccc(NC(=O)CC(c4ccccc4)c4ccccc4)c3)=NO2)C[C@H]1C(N)=O` (stereo partly specified) reads 8.91 µM [falling, partial curve, poor fit]; that for `COc1cccc(Oc2ccc(N)cn2)c1`, 32.6 µM [rising, single point]. On the same count and under the same terms, under `CCOC(=O)c1cc(CC)sc1NC(=O)c1cccc(N2C(=O)CCC2=O)c1` stands 18.4 µM [falling, single point]; under `COc1cc2c(cc1OC)CN(C(=O)C1(c3ccccc3)CC1)CC2`, 35.5 µM [rising, single point]. For the molecule `O=C(NCc1cccs1)C1CCN(c2ccc(S(=O)(=O)N3CCOCC3)cc2Cl)CC1`, the AC50 was 10 µM [rising, partial curve, poor fit] under setting [1] and 20 µM [falling, single point] under setting [2].

In the case of `CC(C)[C@H](NC(=O)c1ccccc1F)C(=O)OCC(=O)NC(=O)NC1CCCCC1`, the AC50 under setting [1] is 20.6 µM [falling, single point] and the AC50 under setting [2] was 5.8 µM [rising, partial curve, poor fit]. Turning to `CCOc1cccc(C(=O)N/N=C/c2coc3ccccc3c2=O)c1`, the AC50 under setting [1] was 1.26 µM [falling, partial curve, poor fit]. On the same count and under the same terms, under `CC(=C/C(=O)O)/C(=C/c1ccccc1)C(=O)O` stands 14.6 µM [rising, partial curve]. As for `S=C(Nc1ccc(Oc2ccccc2)cc1)N1CCN(c2ccccn2)CC1`, the AC50 was 0.112 µM [rising, full curve, poor fit] under setting [1] and 35.5 µM [rising, partial curve, poor fit] under setting [2]. For the molecule `Cc1ccc(C)c(S(=O)(=O)N2CCN(C(=O)C3CCN(c4ncnc5sc(C)c(C)c45)CC3)CC2)c1`, under setting [1], the AC50 was 32.6 µM [falling, single point]. Same read-out and setting: under `O=C(CSc1ncnc2c1nnn2Cc1ccc(F)cc1)NCC1CCCO1` (stereo unspecified) stands 3.55 µM [falling, partial curve, poor fit]; under `COc1cc(-c2nc3oc4ccccc4c(=O)c3c(=O)n2Cc2ccco2)cc(OC)c1OC`, 4.47 µM [falling, full curve].
